{
  "source": "paper PMC11574364",
  "test_in_all_cases": "human ORF protein microarray",
  "key": {"JAZF1 (Homo sapiens)": {"molecular_target": "T1, JAZF1 (Homo sapiens) (UniProt Q86VZ6)", "T1 sequence (looked up, limits assumed)": "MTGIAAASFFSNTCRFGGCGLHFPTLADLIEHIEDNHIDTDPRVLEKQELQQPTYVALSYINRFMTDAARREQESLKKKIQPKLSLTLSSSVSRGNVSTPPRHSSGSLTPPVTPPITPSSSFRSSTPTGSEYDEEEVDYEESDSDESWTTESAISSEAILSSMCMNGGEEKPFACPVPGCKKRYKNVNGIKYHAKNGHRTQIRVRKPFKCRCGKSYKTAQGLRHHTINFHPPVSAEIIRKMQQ", "conditions": "5' phosphate; Domain array: 20 mM Tris-HCl pH 7.4, 200 mM KCl, 0.2 mM EDTA, 0.05% NP40, 2 ug/ul heparin, overnight 4 C. ORF array: PBS pH 7.0 with RNase inhibitor, 100 ng RNA, 1 h.; recombinant protein; protein details: N-terminal GST-6xHis; label: internal DY647 at G18; letters put together from the description"}, "CXorf20 (Homo sapiens)": {"molecular_target": "CXorf20 (Homo sapiens) (UniProt Q8NDZ0)", "conditions": "5' phosphate; Domain array: 20 mM Tris-HCl pH 7.4, 200 mM KCl, 0.2 mM EDTA, 0.05% NP40, 2 ug/ul heparin, overnight 4 C. ORF array: PBS pH 7.0 with RNase inhibitor, 100 ng RNA, 1 h.; recombinant protein; protein details: N-terminal GST-6xHis; label: internal DY647 at G18; letters put together from the description"}, "SOCS5 (Homo sapiens)": {"molecular_target": "T2, SOCS5 (Homo sapiens) (UniProt O75159)", "T2 sequence (looked up, limits assumed)": "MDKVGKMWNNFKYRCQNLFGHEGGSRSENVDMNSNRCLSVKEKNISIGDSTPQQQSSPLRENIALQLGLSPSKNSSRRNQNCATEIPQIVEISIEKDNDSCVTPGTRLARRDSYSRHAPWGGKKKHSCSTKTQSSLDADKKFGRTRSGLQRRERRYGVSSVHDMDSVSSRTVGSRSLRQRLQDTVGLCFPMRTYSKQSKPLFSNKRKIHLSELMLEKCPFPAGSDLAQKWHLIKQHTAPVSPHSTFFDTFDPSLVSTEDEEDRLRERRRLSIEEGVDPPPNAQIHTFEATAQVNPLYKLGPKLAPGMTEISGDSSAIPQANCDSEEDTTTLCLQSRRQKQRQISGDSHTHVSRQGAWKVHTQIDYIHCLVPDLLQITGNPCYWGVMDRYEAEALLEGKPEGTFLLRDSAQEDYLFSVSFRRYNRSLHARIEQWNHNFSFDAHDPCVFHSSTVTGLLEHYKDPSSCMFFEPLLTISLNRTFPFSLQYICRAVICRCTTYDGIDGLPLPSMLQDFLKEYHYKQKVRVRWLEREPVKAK", "conditions": "5' phosphate; Domain array: 20 mM Tris-HCl pH 7.4, 200 mM KCl, 0.2 mM EDTA, 0.05% NP40, 2 ug/ul heparin, overnight 4 C. ORF array: PBS pH 7.0 with RNase inhibitor, 100 ng RNA, 1 h.; recombinant protein; protein details: N-terminal GST-6xHis; label: internal DY647 at G18; letters put together from the description"}, "TIMP3 (Homo sapiens)": {"molecular_target": "T3, TIMP3 (Homo sapiens) (UniProt P35625)", "T3 sequence (looked up, limits assumed)": "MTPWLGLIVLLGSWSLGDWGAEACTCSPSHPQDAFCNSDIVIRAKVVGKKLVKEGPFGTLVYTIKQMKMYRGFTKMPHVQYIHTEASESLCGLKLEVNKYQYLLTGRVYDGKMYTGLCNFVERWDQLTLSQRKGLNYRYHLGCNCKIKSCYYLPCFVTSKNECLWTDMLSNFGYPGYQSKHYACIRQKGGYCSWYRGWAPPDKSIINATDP", "conditions": "5' phosphate; Domain array: 20 mM Tris-HCl pH 7.4, 200 mM KCl, 0.2 mM EDTA, 0.05% NP40, 2 ug/ul heparin, overnight 4 C. ORF array: PBS pH 7.0 with RNase inhibitor, 100 ng RNA, 1 h.; recombinant protein; protein details: N-terminal GST-6xHis; label: internal DY647 at G18; letters put together from the description"}, "YME1L1 (Homo sapiens)": {"molecular_target": "T4, YME1L1 (Homo sapiens) (UniProt Q96TA2)", "T4 sequence (looked up, limits assumed)": "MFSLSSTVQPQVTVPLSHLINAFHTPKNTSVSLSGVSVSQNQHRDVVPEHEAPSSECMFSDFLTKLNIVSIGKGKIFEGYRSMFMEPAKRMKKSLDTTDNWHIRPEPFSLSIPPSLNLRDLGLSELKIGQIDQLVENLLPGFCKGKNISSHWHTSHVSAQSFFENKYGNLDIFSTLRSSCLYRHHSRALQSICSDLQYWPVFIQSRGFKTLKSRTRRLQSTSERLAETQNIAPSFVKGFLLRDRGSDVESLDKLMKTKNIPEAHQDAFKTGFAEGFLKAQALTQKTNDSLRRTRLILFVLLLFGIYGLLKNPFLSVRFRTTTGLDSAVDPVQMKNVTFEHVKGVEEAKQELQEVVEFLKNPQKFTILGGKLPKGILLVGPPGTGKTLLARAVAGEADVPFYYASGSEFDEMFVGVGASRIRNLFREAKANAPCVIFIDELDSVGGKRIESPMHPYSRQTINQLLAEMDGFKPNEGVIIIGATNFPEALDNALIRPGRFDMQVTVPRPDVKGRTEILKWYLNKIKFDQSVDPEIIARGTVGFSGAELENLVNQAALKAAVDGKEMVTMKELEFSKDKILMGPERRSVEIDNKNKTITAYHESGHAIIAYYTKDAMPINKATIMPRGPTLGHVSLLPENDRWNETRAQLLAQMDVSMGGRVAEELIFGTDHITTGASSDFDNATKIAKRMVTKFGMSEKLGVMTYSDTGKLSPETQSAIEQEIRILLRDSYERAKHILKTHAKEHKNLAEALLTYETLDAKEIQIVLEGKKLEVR", "conditions": "5' phosphate; Domain array: 20 mM Tris-HCl pH 7.4, 200 mM KCl, 0.2 mM EDTA, 0.05% NP40, 2 ug/ul heparin, overnight 4 C. ORF array: PBS pH 7.0 with RNase inhibitor, 100 ng RNA, 1 h.; recombinant protein; protein details: N-terminal GST-6xHis; label: internal DY647 at G18; letters put together from the description"}, "BUB3 (Homo sapiens)": {"molecular_target": "BUB3 (Homo sapiens) (UniProt O43684)", "conditions": "5' phosphate; amino-C6 U at position 18; Domain array: 20 mM Tris-HCl pH 7.4, 200 mM KCl, 0.2 mM EDTA, 0.05% NP40, 2 ug/ul heparin, overnight 4 C. ORF array: PBS pH 7.0 with RNase inhibitor, 100 ng RNA, 1 h.; recombinant protein; protein details: N-terminal GST-6xHis; label: internal Cy5 or DY647"}, "RAB6B (Homo sapiens)": {"molecular_target": "RAB6B (Homo sapiens) (UniProt Q9NRW1)", "conditions": "5' phosphate; amino-C6 U at position 18; Domain array: 20 mM Tris-HCl pH 7.4, 200 mM KCl, 0.2 mM EDTA, 0.05% NP40, 2 ug/ul heparin, overnight 4 C. ORF array: PBS pH 7.0 with RNase inhibitor, 100 ng RNA, 1 h.; recombinant protein; protein details: N-terminal GST-6xHis; label: internal Cy5 or DY647"}, "ABCG1 (Homo sapiens)": {"molecular_target": "ABCG1 (Homo sapiens) (UniProt P45844)", "conditions": "5' phosphate; amino-C6 U at position 18; Domain array: 20 mM Tris-HCl pH 7.4, 200 mM KCl, 0.2 mM EDTA, 0.05% NP40, 2 ug/ul heparin, overnight 4 C. ORF array: PBS pH 7.0 with RNase inhibitor, 100 ng RNA, 1 h.; recombinant protein; protein details: N-terminal GST-6xHis; label: internal Cy5 or DY647"}},
  "note": "Construct, isoform or probe ends are uncertain for at least one entry. For some assays here: Protein sequences can lack the tags named with them.",
  "data": [
    {"sequence": "CAGUGCAAUGAUGAAAGGGCAU [miR-130b (internal labeling)]", "values": [
      {"measurement": "binding result", "setting": "JAZF1 (Homo sapiens)", "value": "binds"},
      {"measurement": "binding result", "setting": "CXorf20 (Homo sapiens)", "value": "binds"}
    ]},
    {"sequence": "UAGCUUAUCAGACUGAUGUUGA [miR-21 (internal labeling)]", "values": [
      {"measurement": "binding result", "setting": "SOCS5 (Homo sapiens)", "value": "binds"},
      {"measurement": "binding result", "setting": "TIMP3 (Homo sapiens)", "value": "binds"},
      {"measurement": "binding result", "setting": "YME1L1 (Homo sapiens)", "value": "binds"}
    ]},
    {"sequence": "UGAGGUAGUAGGUUGUGUGGUU [let-7b (internal labeling)]", "values": [
      {"measurement": "binding result", "setting": "BUB3 (Homo sapiens)", "value": "binds"},
      {"measurement": "binding result", "setting": "RAB6B (Homo sapiens)", "value": "binds"},
      {"measurement": "binding result", "setting": "ABCG1 (Homo sapiens)", "value": "binds"}
    ]}
  ]
}
